The text below walks through data of the supplement of paper PMC12889115.

Some of the results follow. These are raw signals, not scaled to a control.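 Primary screen: polymyxin B was added at a level permeabilizing Salmonella outer membranes while sparing inner membranes. DMSO wells, both with and without polymyxin B, established maximum growth. Plate-to-plate variation meant each plate was ranked on its own, and the lowest-OD600 compounds were selected as hits.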

For the assay, the system named is Salmonella enterica serovar Typhimurium SL1344. Kind of assay: bacterial growth OD600 after 18 h with compound and polymyxin B; higher = more bacterial growth (less inhibition). Conditions: 50 µM, Mueller-Hinton broth.

Regarding `CCn1nc(C)c(CNc2nc3nonc3nc2N2CCCCCC2)c1C`, the “bacterial growth OD600” value (polymyxin B 1 µg/mL) turned out to be 1.05.

With `COc1cccc(CC2(CO)CCCN(Cc3ccccc3OC(F)F)C2)c1` (stereo not given), the “bacterial growth OD600” value (polymyxin B 1 µg/mL) came out at 0.739. On the same count and under the same terms, for `COC(=O)c1ccc(-c2nc(CN3CCCC3c3cccc(OC)c3)c(C)o2)cc1` (stereo not given) the value was 0.838. `CCc1ccc(-c2cn3c(C(=O)N4CCC[C@H]4CO)csc3n2)cc1`: where the note is “polymyxin B 0.75 µg/mL”, the “bacterial growth OD600” value turned out to be 0.57. The same measure, in the same setting: for `CCC1CN(C(=O)CCc2ccccc2OC)Cc2ccc(Cl)cc2O1` (stereo not given) the value was 0.049; for `Cc1c(CN2CCOc3ccc(C(O)Cc4ccccc4)cc3C2)cnn1C` (stereo not given), 0.854. Turning to `O=C(Nc1ccc(Oc2ccccc2F)cc1)C1CCN(Cc2ccncc2)CC1`, the “bacterial growth OD600” value (polymyxin B 1 µg/mL) was found to be 1.04.

For the compound `C=CCCC(=O)N1CCC(Oc2ccc(C(=O)NCCN(C)C)cc2Cl)CC1`, under “polymyxin B 0.75 µg/mL”, the “bacterial growth OD600” value was determined as 0.839. Still for that read-out and setting: for `Cc1ccc(OCCN(C)C(=O)c2cc(Cn3nc(C)cc3C)[nH]n2)cc1` the value was 0.802; for `Cn1nc(C(=O)N2CCCC(CCc3ccccc3C(F)(F)F)C2)ccc1=O` (stereo not given), 0.583. For the compound `CCc1csc(CNC(=O)c2ccc(N3CCC[C@H]3CO)nc2)n1`, the “bacterial growth OD600” value (polymyxin B 1 µg/mL) was 0.928.

For the compound `CC1CCN(CC2(O)CCCN(CC(C)(C)C)C2=O)CC1` (stereo not given), the “bacterial growth OD600” value (polymyxin B 1 µg/mL) came out at 0.999.

Take `CCOc1cc(CN2CCC3(CC2)c2ccccc2[C@@H](NC(=O)CC)[C@@H]3OCC)ccc1OC`: the “bacterial growth OD600” value (polymyxin B 0.75 µg/mL) was determined as 0.807. In the case of `COc1ccc(OC)c(S(=O)(=O)NCc2cccnc2N(C)C)c1`, the “bacterial growth OD600” value (polymyxin B 1 µg/mL) came to 0.941. With `COC(=O)CCCC(=O)N1CCCC(CCc2ccccc2F)C1` (stereo not given), the “bacterial growth OD600” value (polymyxin B 0.75 µg/mL) was 0.617. Consider `COc1ccc(OC2CCN(C3CCCC3)CC2)c(C(=O)N(C)Cc2ccn[nH]2)c1`, for which, for the setting “polymyxin B 1 µg/mL”, the “bacterial growth OD600” value amounted to 1.2. Consider `CC(=O)N1CCC(N2CCCC(CCc3ccccc3)C2)CC1` (stereo not given), for which, for the setting “polymyxin B 0.75 µg/mL”, the “bacterial growth OD600” value turned out to be 0.888. For the compound `CC(C)(CNC1CCCN(c2nc3ccccc3s2)C1)CN1CCOCC1` (stereo not given), the “bacterial growth OD600” value (polymyxin B 1 µg/mL) amounted to 0.819. On to `CCCc1cc(CN(C)C(=O)CC2(c3ccccc3C)CC(=O)N(Cc3ccncc3)C2=O)n[nH]1` (stereo not given), for which the “bacterial growth OD600” value (polymyxin B 0.75 µg/mL) was 0.82.

As for `CSCCC(=O)N1CCc2[nH]nc(-c3ccc(Cl)cc3)c2C1`, the “bacterial growth OD600” value (polymyxin B 0.75 µg/mL) was determined as 0.006.
